From PubChem BioAssay AID240 (DTP/NCI, 2004) come the findings set out here.

In this assay the test system is Lymphoma 4 ip in BDF1 mice, median survival. The assay can be described thus: NCI In Vivo Anticancer Drug Screen. Data for tumor model Lymphoma 4 (intraperitoneal) in B6D2F1 (BDF1) mice. Conditions: T/C endpoint: median survival time, schedule: Q01DX010 (ip), vehicle: saline, higher T/C = longer survival. How it is done: The antitumor activity of compounds was measured in mice bearing transplantable tumors. Survival or tumor size were measured and the results are expressed as the measurement made in the treated group (T) divided by the measurement made in the vehicle treated control group (C). The tumor model used in this assay is Lymphoma 4 (intraperitoneal) in B6D2F1 (BDF1) mice

The list shows only some results of the screen, not a fair sample: it covers a few groups of compounds. Other doses and runs of a compound may be missing. T/C: endpoint of the treated group in % of that of the vehicle group. For survival time, this PubChem deposit counts one and a half times the control or more as active, and values a quarter to a half above the control carry no call in these data; other NCI protocols may use other cut-offs. Schedule codes are those of the source, taken here to give the interval after Q, in days (D) or hours (H), and the number of doses after X. Some doses were run more than once; their values stand side by side, smallest first. Some T/C values carry the count of animals alive at the toxicity check (mostly the fifth day); without a count or a note in brackets, all were alive then.

For `NC1CCCCC1.O=P(O)(N(CCCl)CCCl)N1CC1`, the T/C runs as follows: (dose: 1.25 mg/kg/injection) 110 % of control; (dose: 2.5 mg/kg/injection) 103 and 123 % of control; (dose: 5.0 mg/kg/injection) 119 and 136 % of control; (dose: 10.0 mg/kg/injection) 150 [4 of 6 alive] and 173 % of control; (dose: 20.0 mg/kg/injection) 196 % of control.

Take `CC[C@@H](C)[C@@H]1NC(=O)/C(=C(\C)O)C1=O.c1ccc(CNCCNCc2ccccc2)cc1`: the T/C by setting is: (dose: 10.0 mg/kg/injection) 103 % of control; (dose: 14.0 mg/kg/injection) 103 % of control; (dose: 20.0 mg/kg/injection) 103 % of control; (dose: 30.0 mg/kg/injection) 100 % of control.
